PubChem BioAssay AID652272 – Drosophila RNAi Screening Center | 2013
The screen tested about 21,000 reagents; shown is an unselected part of those that have a named target and a result. In the full data, 503 (2.4%) got an active call. 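Raw plate light values, not normalised; calls rest on replicate z-scores that were not deposited; hits include reporter decreases as well as increases.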 A number with no mark means an inactive call. A plus sign joins genes that one reagent is predicted to hit. Reagent sequences are not shown. The record does not give: the amount of reagent, the time to read-out.

Test: 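Genes whose knock-down decreases or increases Hedgehog reporter output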 (primary screen)
System: Drosophila clone 8 (Cl8) cells
Knock-down reagent: long dsRNA against Drosophila genes
Detection: 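Firefly light from a Hedgehog-responsive ptc promoter reporter and Renilla reference light, both read on a plate reader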
Reading the numbers: firefly Hh reporter signal: higher = more ptc reporter light; Renilla reference signal: higher = more Renilla control light
Rule for the call: 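Called a hit if the two-replicate mean z-score lies below -2 or above +3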
Calls: active = hit: reporter lowered or raised; inactive = not a hit

{"gene": "CG11370", "amplicon": "DRSC11653", "firefly Hh reporter signal, replicate 1": 65371, "firefly Hh reporter signal, replicate 2": 50997, "Renilla reference signal, replicate 1": 2880, "Renilla reference signal, replicate 2": 1940}
{"gene": "gnu", "amplicon": "DRSC10497", "firefly Hh reporter signal, replicate 1": 93688, "firefly Hh reporter signal, replicate 2": 58451, "Renilla reference signal, replicate 1": 3668, "Renilla reference signal, replicate 2": 2188}
{"gene": "IKKbeta", "amplicon": "DRSC16714", "firefly Hh reporter signal, replicate 1": 1.32e5, "firefly Hh reporter signal, replicate 2": 66555, "Renilla reference signal, replicate 1": 5393, "Renilla reference signal, replicate 2": 2711}
{"gene": "PIG-H + Kmn2", "amplicon": "DRSC12653", "firefly Hh reporter signal, replicate 1": 1.33e5, "Renilla reference signal, replicate 1": 2387}
{"gene": "Yeti", "amplicon": "DRSC21138", "firefly Hh reporter signal, replicate 1": "6.14e5 (active)", "firefly Hh reporter signal, replicate 2": 1.83e5, "Renilla reference signal, replicate 1": 22219, "Renilla reference signal, replicate 2": 1754}
{"gene": "CG33120", "amplicon": "DRSC02073", "firefly Hh reporter signal, replicate 1": 1.04e5, "firefly Hh reporter signal, replicate 2": 62153, "Renilla reference signal, replicate 1": 4440, "Renilla reference signal, replicate 2": 2640}
{"gene": "CG32365", "amplicon": "DRSC10040", "firefly Hh reporter signal, replicate 1": 69420, "firefly Hh reporter signal, replicate 2": 53319, "Renilla reference signal, replicate 1": 6984, "Renilla reference signal, replicate 2": 4073}
{"gene": "CG32365", "amplicon": "DRSC10041", "firefly Hh reporter signal, replicate 1": 15105, "firefly Hh reporter signal, replicate 2": 10728, "Renilla reference signal, replicate 1": 2042, "Renilla reference signal, replicate 2": 836}
{"gene": "CG32365", "amplicon": "DRSC10977", "firefly Hh reporter signal, replicate 1": 30838, "firefly Hh reporter signal, replicate 2": 22083, "Renilla reference signal, replicate 1": 2696, "Renilla reference signal, replicate 2": 1622}
{"gene": "RpL9", "amplicon": "DRSC03418", "firefly Hh reporter signal, replicate 1": "39847 (active)", "firefly Hh reporter signal, replicate 2": 17714, "Renilla reference signal, replicate 1": 2359, "Renilla reference signal, replicate 2": 3601}
{"gene": "mldr", "amplicon": "DRSC18100", "firefly Hh reporter signal, replicate 1": 91750, "firefly Hh reporter signal, replicate 2": 2.12e5, "Renilla reference signal, replicate 1": 2560, "Renilla reference signal, replicate 2": 8407}

A run of entries taken from the entries so far, as a working copy:
{"gene": "CG32365", "amplicon": "DRSC10977", "firefly Hh reporter signal, replicate 1": 30838, "firefly Hh reporter signal, replicate 2": 22083, "Renilla reference signal, replicate 1": 2696, "Renilla reference signal, replicate 2": 1622}
{"gene": "RpL9", "amplicon": "DRSC03418", "firefly Hh reporter signal, replicate 1": "39847 (active)", "firefly Hh reporter signal, replicate 2": 17714, "Renilla reference signal, replicate 1": 2359, "Renilla reference signal, replicate 2": 3601}
{"gene": "mldr", "amplicon": "DRSC18100", "firefly Hh reporter signal, replicate 1": 91750, "firefly Hh reporter signal, replicate 2": 2.12e5, "Renilla reference signal, replicate 1": 2560, "Renilla reference signal, replicate 2": 8407}

More records follow.
{"gene": "Coq8", "amplicon": "DRSC19900", "firefly Hh reporter signal, replicate 1": 52688, "firefly Hh reporter signal, replicate 2": 2.25e5, "Renilla reference signal, replicate 1": 1564, "Renilla reference signal, replicate 2": 8304}
{"gene": "Scp1", "amplicon": "DRSC20799", "firefly Hh reporter signal, replicate 1": 7.80e5, "firefly Hh reporter signal, replicate 2": 2.43e5, "Renilla reference signal, replicate 1": 40723, "Renilla reference signal, replicate 2": 5962}
{"gene": "Scp1", "amplicon": "DRSC20803", "firefly Hh reporter signal, replicate 1": 6.97e5, "firefly Hh reporter signal, replicate 2": 2.65e5, "Renilla reference signal, replicate 1": 37528, "Renilla reference signal, replicate 2": 6932}
{"gene": "Scp1", "amplicon": "DRSC20806", "firefly Hh reporter signal, replicate 1": 1.34e5, "firefly Hh reporter signal, replicate 2": 2.62e5, "Renilla reference signal, replicate 1": 5147, "Renilla reference signal, replicate 2": 11680}
{"gene": "Mpc1", "amplicon": "DRSC14770", "firefly Hh reporter signal, replicate 1": 1.14e5, "firefly Hh reporter signal, replicate 2": 90104, "Renilla reference signal, replicate 1": 3553, "Renilla reference signal, replicate 2": 3253}
{"gene": "CG3841", "amplicon": "DRSC02730", "firefly Hh reporter signal, replicate 1": 1.28e5, "firefly Hh reporter signal, replicate 2": 56122, "Renilla reference signal, replicate 1": 3366, "Renilla reference signal, replicate 2": 5319}
{"gene": "CG8319", "amplicon": "DRSC16407", "firefly Hh reporter signal, replicate 1": 63735, "firefly Hh reporter signal, replicate 2": 1.57e5, "Renilla reference signal, replicate 1": 1621, "Renilla reference signal, replicate 2": 3160}
{"gene": "Ctr1C", "amplicon": "DRSC15089", "firefly Hh reporter signal, replicate 1": 1.18e5, "firefly Hh reporter signal, replicate 2": 1.12e5, "Renilla reference signal, replicate 1": 3515, "Renilla reference signal, replicate 2": 3397}
{"gene": "msopa", "amplicon": "DRSC11895", "firefly Hh reporter signal, replicate 1": 49730, "firefly Hh reporter signal, replicate 2": 41792, "Renilla reference signal, replicate 1": 1813, "Renilla reference signal, replicate 2": 1258}
{"gene": "zld", "amplicon": "DRSC19486", "firefly Hh reporter signal, replicate 1": 1.08e5, "firefly Hh reporter signal, replicate 2": 2.37e5, "Renilla reference signal, replicate 1": 2600, "Renilla reference signal, replicate 2": 9384}
